Measured data: PubChem BioAssay AID1259254 (NCATS, 2017)
In all, the deposit lists about 59,000 reagents; below is a part drawn at random. In the full data, about 1,550 (2.6%) were called active. 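G2 share is only a proxy for re-replication; each gene was hit by three separate siRNAs, and active genes were retested.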 Entries without a mark were called inactive. Reagents against one gene are numbered here. Not all columns of the deposit are shown. No sequences are given here. Not given: the amount of reagent.

Purpose: 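Gene knock-downs that lead to re-replication, shown by excess G2 DNA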 (primary screen)
Cells: human HCT116 colorectal cancer cells
Knock-down reagent: single siRNA against human genes
Duration: 3 days
Measured: 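Imaged Hoechst DNA stain sorts each cell into a cycle phase by DNA amount; per plate, G2 fraction set to 0% for non-targeting and 100% for GMNN siRNA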
Direction: G2 robust z-score: higher = more G2 cells, more excess DNA replication
Active means: 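An siRNA counts as active if its G2 robust z-score lies at least 5 MADs above the screen median; here such calls match roughly 38% of GMNN control or more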

target | siRNA no. | G2 robust z-score
CALU | 1 | 1.28
CALU | 2 | -0.131
CALU | 3 | -0.439
GTF2H2 | 1 | 0.297
GTF2H2 | 2 | 3.4
GTF2H2 | 3 | 0.897
PRSS54 | 1 | 1.78
PRSS54 | 2 | -0.474
PRSS54 | 3 | 1.05
SFRP1 | 1 | 0.173
SFRP1 | 2 | -0.592
SFRP1 | 3 | -0.683
UBALD2 | 1 | -0.475
UBALD2 | 2 | 0.248
UBALD2 | 3 | 0.396
RPS28P7 | 1 | 6.68 (active)
RPS28P7 | 2 | 2.46
RPS28P7 | 3 | 1.86
CREB3 | 1 | -0.335
CREB3 | 2 | 1.08
CREB3 | 3 | -0.474
PLEKHA3 | 1 | 0.433
PLEKHA3 | 2 | -0.0424
PLEKHA3 | 3 | -0.466
CCDC150 | 1 | -0.0024
CCDC150 | 2 | 0.194
CCDC150 | 3 | -0.661
SPMIP11 | 1 | -0.286
SPMIP11 | 2 | 0.494
SPMIP11 | 3 | -0.129
FCRLA | 1 | -0.575
FCRLA | 2 | -0.149
FCRLA | 3 | 1.85
MED12L | 1 | 3.24
MED12L | 2 | -0.347
MED12L | 3 | -0.549
IFT54 | 1 | -1.18
IFT54 | 2 | 0.00925
IFT54 | 3 | 1.86
RNF157 | 1 | -0.264
RNF157 | 2 | 1.38
RNF157 | 3 | -0.177
ZXDA | 1 | 0.689
ZXDA | 2 | -0.308
ZXDA | 3 | 0.574
OPLAH | 1 | 0.819
OPLAH | 2 | -0.756
OPLAH | 3 | 0.874

Not a retest: 3 of the entries above.
target | siRNA no. | G2 robust z-score
CREB3 | 2 | 1.08
CREB3 | 3 | -0.474
PLEKHA3 | 1 | 0.433
